Data as given in paper PMC11130726.
These are yes or no findings as the source states them, for the method shown. In cells and extracts the contact can be indirect. Some results given as binding are weak or reduced against the parent protein; the word gives no strength.

By UniProt entry, the sequences of proteins in these tests, tags left out.
UniProt Q6ZW49: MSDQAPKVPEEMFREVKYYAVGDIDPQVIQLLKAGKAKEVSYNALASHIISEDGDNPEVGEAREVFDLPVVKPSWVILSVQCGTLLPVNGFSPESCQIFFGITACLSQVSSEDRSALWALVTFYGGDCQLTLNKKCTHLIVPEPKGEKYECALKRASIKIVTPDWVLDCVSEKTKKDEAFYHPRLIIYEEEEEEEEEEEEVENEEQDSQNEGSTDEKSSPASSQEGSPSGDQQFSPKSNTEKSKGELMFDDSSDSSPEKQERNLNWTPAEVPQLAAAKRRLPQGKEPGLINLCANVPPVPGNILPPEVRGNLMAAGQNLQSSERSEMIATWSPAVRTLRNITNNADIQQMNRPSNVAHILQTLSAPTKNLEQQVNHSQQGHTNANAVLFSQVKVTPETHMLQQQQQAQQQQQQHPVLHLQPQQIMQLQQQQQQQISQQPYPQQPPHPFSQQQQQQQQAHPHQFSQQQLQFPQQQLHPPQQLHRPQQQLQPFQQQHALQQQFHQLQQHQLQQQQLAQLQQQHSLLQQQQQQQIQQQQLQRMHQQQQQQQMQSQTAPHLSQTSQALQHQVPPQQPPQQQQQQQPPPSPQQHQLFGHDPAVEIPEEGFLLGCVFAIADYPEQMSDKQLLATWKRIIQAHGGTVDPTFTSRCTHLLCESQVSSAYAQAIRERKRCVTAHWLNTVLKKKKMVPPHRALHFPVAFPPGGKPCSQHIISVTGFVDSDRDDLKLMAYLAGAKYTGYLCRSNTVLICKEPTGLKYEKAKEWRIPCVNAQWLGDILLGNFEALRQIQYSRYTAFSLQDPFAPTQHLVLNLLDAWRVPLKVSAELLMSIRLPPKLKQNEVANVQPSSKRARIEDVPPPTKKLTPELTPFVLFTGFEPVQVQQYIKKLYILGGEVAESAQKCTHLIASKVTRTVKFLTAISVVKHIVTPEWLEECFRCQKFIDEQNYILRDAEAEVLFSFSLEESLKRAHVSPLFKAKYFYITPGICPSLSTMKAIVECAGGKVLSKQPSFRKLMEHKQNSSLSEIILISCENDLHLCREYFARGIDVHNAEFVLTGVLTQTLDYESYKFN
UniProt Q8IY92: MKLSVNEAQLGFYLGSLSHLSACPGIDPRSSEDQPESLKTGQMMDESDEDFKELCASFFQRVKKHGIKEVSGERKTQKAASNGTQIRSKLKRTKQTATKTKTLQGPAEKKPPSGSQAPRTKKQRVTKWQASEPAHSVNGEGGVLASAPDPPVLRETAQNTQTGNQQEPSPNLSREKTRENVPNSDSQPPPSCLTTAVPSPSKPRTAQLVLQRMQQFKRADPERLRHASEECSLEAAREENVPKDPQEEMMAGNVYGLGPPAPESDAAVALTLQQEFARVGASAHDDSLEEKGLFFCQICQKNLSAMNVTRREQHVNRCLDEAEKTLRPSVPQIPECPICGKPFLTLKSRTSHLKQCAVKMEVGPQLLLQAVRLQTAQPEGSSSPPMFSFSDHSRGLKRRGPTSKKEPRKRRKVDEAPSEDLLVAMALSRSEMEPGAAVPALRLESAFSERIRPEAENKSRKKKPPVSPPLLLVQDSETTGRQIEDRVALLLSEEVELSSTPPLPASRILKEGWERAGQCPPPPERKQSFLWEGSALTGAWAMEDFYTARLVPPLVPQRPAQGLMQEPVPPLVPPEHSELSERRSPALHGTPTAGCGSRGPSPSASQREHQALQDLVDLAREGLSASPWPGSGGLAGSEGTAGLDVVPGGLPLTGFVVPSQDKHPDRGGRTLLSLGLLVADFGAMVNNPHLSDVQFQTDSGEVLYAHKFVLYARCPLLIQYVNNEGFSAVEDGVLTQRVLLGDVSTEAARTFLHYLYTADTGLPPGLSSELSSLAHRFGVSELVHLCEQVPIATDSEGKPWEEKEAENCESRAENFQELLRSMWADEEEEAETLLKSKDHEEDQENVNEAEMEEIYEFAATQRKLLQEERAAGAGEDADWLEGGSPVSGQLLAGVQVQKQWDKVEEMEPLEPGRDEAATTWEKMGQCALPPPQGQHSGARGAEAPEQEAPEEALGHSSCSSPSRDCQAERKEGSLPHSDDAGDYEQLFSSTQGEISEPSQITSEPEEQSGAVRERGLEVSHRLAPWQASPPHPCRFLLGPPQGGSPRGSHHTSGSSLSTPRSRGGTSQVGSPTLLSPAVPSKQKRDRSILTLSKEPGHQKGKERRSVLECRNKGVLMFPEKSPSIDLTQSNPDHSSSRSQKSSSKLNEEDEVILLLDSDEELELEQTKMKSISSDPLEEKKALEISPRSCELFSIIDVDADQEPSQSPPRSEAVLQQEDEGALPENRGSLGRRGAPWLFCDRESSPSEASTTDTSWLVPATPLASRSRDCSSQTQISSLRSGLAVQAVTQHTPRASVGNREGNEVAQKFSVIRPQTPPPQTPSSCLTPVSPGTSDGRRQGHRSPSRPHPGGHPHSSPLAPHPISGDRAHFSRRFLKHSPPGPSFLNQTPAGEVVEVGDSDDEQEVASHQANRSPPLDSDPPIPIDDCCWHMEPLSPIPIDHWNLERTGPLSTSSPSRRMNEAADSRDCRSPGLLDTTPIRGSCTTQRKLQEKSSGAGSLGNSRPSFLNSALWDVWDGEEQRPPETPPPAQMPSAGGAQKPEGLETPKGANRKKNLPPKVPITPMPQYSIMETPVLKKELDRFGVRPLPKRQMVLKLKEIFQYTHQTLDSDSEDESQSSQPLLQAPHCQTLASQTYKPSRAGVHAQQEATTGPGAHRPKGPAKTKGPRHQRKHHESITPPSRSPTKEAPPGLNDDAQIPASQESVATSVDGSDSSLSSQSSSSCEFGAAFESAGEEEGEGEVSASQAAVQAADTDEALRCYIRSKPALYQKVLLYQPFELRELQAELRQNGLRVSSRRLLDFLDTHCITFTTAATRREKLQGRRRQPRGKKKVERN

Target: FLAG-PTIP^WT (Pax2 transactivation domain interacting protein; PAX interacting protein 1) (human (from 293T cDNA)) (UniProt Q6ZW49)
Test: co-IP; co-IP of PTIP with nucleases that act at the replication fork (Fig. S2, A-C); cells, bait and tags not shown

binding: binds
Substance: SLX4 (from UniProt Q8IY92 1-1834)
